{"source": "PubChem BioAssay AID1508600", "about": "(Functional Genomics Laboratory (NCATS/FGL), 2020)", "note": "About 3,700 (7%) of roughly 53,000 sequences were called active.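 Rule for the calls: active = gene knockdowns whose robust z-score for IL-1 alpha signal is at least 2 or at most -2, so actives lie on both sides; inactive = the rest.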 This is one part of the list.", "data": [{"experiment": "Components of the Cytosolic LPS Sensing Pathway: Gene Identification via Genome-wide siRNA Screen;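 note: robust z of the log signal after scaling to non-targeting control siRNA wells of the plate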", "settings": "RAW264.7 macrophages, IL-1a HTRF, actives lie on both sides, screened at 100 nM (by protocol), cells primed 5 h with Pam3CSK4 first", "procedure,_shortened": "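Using IL-1a HTRF as read-out, the screen measured release from RAW264.7 cells after 48h siRNA knockdown (100 nM), 5 h Pam3CSK4 priming and 24 h cytosolic LipidA. Values were expressed relative to negative-control wells as robust z-scores.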", "values": [{"sequence": "GGUUCCAACAGGAGAGAACTT against Med23", "z-score": "inactive: 0.692"}, {"sequence": "GGUACAGGUUGGCAUUGAUTT against Aasdhppt", "z-score": "inactive: -0.342"}, {"sequence": "GGUAAAACCGUUUUUGACATT against Zfp830", "z-score": "inactive: -0.493"}, {"sequence": "AUAAAAGUGACUCACCAACTT against A4galt", "z-score": "inactive: 0.543"}, {"sequence": "GGACUGAUUCGUCUAAUACTT against Ckap2", "z-score": "inactive: -0.0467"}, {"sequence": "GCUCGUCGGCUUUUUGUAATT against Spag6", "z-score": "inactive: -1.35"}, {"sequence": "GGCGACUUAUUAAAAUCCUTT against Fads3", "z-score": "inactive: 0.445"}, {"sequence": "GCCAGGUUUACCUAAGAGGTT against Rhog", "z-score": "inactive: -0.819"}, {"sequence": "CCAGUCGUGUUACAAUGUUTT against Fam187a", "z-score": "inactive: 0.29"}, {"sequence": "GGCCGAACCAUCUCAUACCTT against Olfr976", "z-score": "inactive: -0.553"}, {"sequence": "GGUACUGGAUCAAAGAAACTT against Gm11992", "z-score": "inactive: -1.75"}, {"sequence": "GGAGAGAGAAUGAAAGUCATT against Usf3", "z-score": "inactive: 0.0464"}, {"sequence": "GGAGAGUACUGCCAGACUCTT against Ring1", "z-score": "inactive: 1.61"}, {"sequence": "GGACAAACUCUUGCUCUCCTT against Chpt1", "z-score": "inactive: 0.42"}, {"sequence": "GCUUGUCGAGAAACUCUGGTT against Cfap69", "z-score": "inactive: 1.02"}, {"sequence": "GGUUGAAGAGCAUGAGAGCTT against A330041J22Rik", "z-score": "inactive: 1.01"}, {"sequence": "GGAUAUCUCACUGCUUUUATT against Mpp5", "z-score": "active: 2.13"}, {"sequence": "GGAUCUGAAAGAUCAGAUUTT against Lmnb1", "z-score": "inactive: 0.949"}, {"sequence": "GGAAGAAGAAGGAAGAUGATT against Cfdp1", "z-score": "inactive: -0.577"}, {"sequence": "GGAAAAGGAAAGGACUAAGTT against Mdk", "z-score": "inactive: -0.689"}, {"sequence": "GGCAACACUGUUUUAACCGTT against Agbl1", "z-score": "inactive: -0.212"}, {"sequence": "GCAUGUAGUAUGGUAACACTT against Akr1b7", "z-score": "inactive: -1.78"}, {"sequence": "GGGAUAAGACAGGAGACUUTT against Slc16a11", "z-score": "inactive: 0.227"}, {"sequence": "GGACUUCCAUAAGAUGAAATT against Nrap", "z-score": "inactive: -0.542"}, {"sequence": "GGCAAUUGCUGGGUUUCCATT against Marcksl1", "z-score": "inactive: 1.08"}, {"sequence": "UUGGUUCAACCUCAUCAUATT against Olfr869", "z-score": "active: 2.07"}, {"sequence": "CGAUCUAGUCAACAUCAAATT against Fcer2a", "z-score": "inactive: 1.16"}, {"sequence": "GGUCGAUAUAAUCCUAGAGTT against Chrna5", "z-score": "inactive: -0.516"}, {"sequence": "GCCAUACGCUGACCUUUCATT against Sp7", "z-score": "inactive: -1.82"}]}]}
